From PubChem BioAssay (NCATS)
Inconclusive results, whose numbers are uncertain, are shown with a selection of clear calls. A potency beside an inconclusive call is a rough fit, not a confirmed value. Active and inactive are the calls of the source. The call rests on the fitted dose curve; in most records, active means well fitted cell-killing curve with a large enough effect; inconclusive means small, poorly fitted or top-dose-only effect; inactive means flat fitted curve, though single readings scatter.

Experiment: Quantitative highthroughput screen to assess conditional lethalithy of P12 Ichikawa cells grown in RPMI1640 with dialyzed fetal bovine serum (RPMI+ds) (AID 1963880); further: nearly all actives have a fitted effect of over 35% in size
Conditions: ATP luminescence, 48 h; Potency: P12-Ichikawa viability; series mostly up to 45.8 µM
Description: Assay Provider: Jason Cantor Ph.D.
Department of Biochemistry
University of Wisconsin-Madison, Madison, WI, USA
Chemical screening studies have identified drug sensitivities across hundreds of cancer cell lines but most putative therapeutics fail to translate. Discovery and development of drug candidates in models that more accurately reflect nutrient levels in human blood is a major challenge. Here we performed high-throughput screens in conventional versus Human Plasma-Like Medium (HPLM) to identify compounds that were "missed" when screening using the artificial culture condition. Sets of conditional anticancer compounds spanned phases of clinical development and included non-oncology drugs were assessed. […] We also traced conditional phenotypes for several chemotherapeutics to availability of HPLM-specific metabolites and confirmed others for compounds whose reported targets are encoded by nonessential genes. Our findings establish generalizable strategies for exploiting conditional lethality in HPLM to reveal therapeutic candidates and mechanisms of action in cancer cells.
Described herein are the results of each viability screens against three cell lines: NOMO1 (an acute myeloid leukemia cell line); P12-Ichikawa (a T-cell acute lymphoblastic leukemia); and SEM (a B-cell ALL). Each assay was screened using 3 different cell culture media: homemade human plasma-Like medium with 10% dialyzed fetal bovine serum (HPLM+ds); RPMI1640 with 10% untreated FBS and 5mM glucose (RPMI+s); and RPMI1640 with 10% dialyzed fetal bovine serum and 5 mM glucose (RPMI+ds).
PROTOCOL TABLE (as described by Inglese J, Shamu CE and Guy RK. 2007)
SEQUENCE No. (e.g., 1, 2, 3, etc.); […] (e.g., Cells, Incubation, Reagent, etc.); VALUE and DESCRIPTION.
1; Cells; 5 uL; white, solid bottom 1536-well Greiner assay plate.
2; Compounds; 23 nL; Kalypsis pin tool (Wako USA) equipped with a 1536-well pin head to transfer to the assay plates.
3; Incubation; 48 hours; 37C incubation.
4; Reagent; 3 uL; CellTiter Glo (Promega).
5; Incubation; 5 min, room temperature
6; Detection; Luminescence, Viewlux PerkinElmer.
NOTES (numbers refer to Sequence numbers above)
1. Briefly, 5 ul of cell reagent was dispensed using a Multidrop Combi Dispenser. The NOMO1 and SEM cells were plated at 500 cells/well and the P12-Ichikawa line at 1000 cells/well.
2. After seeding the cells, 23 nL of MIPE 4.1 library compounds (in DMSO) were added to each plate using a Kalypsys 1536 Pintool dispenser. Bortezomib at final concentration of […] and DMSO were added to each plate as positive and negative controls respectively. For each screen, MIPE 4.1 compounds were added over an eleven-point concentration range […] in 3-fold dilutions.
3. Each plate was covered with a stainless steel gasketed lid to prevent evaporation and incubated for 48 hour at 37C, 95% relative humidity, and 5% CO2.
4-5. Three microliter CellTilter-GloTM luminescent substrate mix (Promega) reagent was added to the assay plate and incubated at room temperature for 5 min.
6. The luminescence signal was measured using a ViewLux (PerkinElmer) multiplate reader with a 2 second exposure time per plate. Data for each compound were normalized as percent viability such that measurements for DMSO and the empty well controls in each plate were defined as 100% and 0%, respectively.
Potency means the concentration at half of the fitted maximal effect.

Structure (SMILES)	Potency
CN(C)CC[C@H](CSc1ccccc1)Nc1ccc(S(=O)(=O)NC(=O)c2ccc(N3CCN(Cc4ccccc4-c4ccc(Cl)cc4)CC3)cc2)cc1[N+](=O)[O-]	active: 2.35 µM
Cc1ccn(-c2ccc(-c3ncco3)cc2)c(=O)c1-c1ccc2nc(N)ncc2c1	inconclusive: 33.2 µM [cytotoxic, partial curve, poor fit]
Oc1ccc(C=Cc2cc(O)cc(O)c2)cc1	inconclusive: 20.9 µM [cytotoxic, partial curve]
Cn1cc(C=CC(=O)c2cccc(F)c2)cc1C=CC(=O)NO	inconclusive: 13.2 µM [cytotoxic, partial curve, poor fit]
COc1cc2ncnc(-n3nc(-c4ccccn4)nc3N)c2cc1OC	inconclusive: 29.6 µM [cytotoxic, single point]
NC(=O)NN=Cc1ccc([N+](=O)[O-])o1	inactive
CCC(C)(Oc1ccc(C2(c3ccc(OC(C)(CC)C(=O)O)cc3)CCCCC2)cc1)C(=O)O (stereo not given)	inactive
CC(C)(C)c1cnc(CSc2cnc(NC(=O)C3CCNCC3)s2)o1	active: 1.32 µM
O=c1[nH]nc(Sc2ncc([N+](=O)[O-])s2)n1-c1ccc2c(c1)OCCO2	active: 9.35 µM
Cc1ccc([C@@H]2O[C@H](CO)[C@@H](O)[C@H](O)[C@@H]2O)cc1Cc1ccc(-c2ccc(F)cc2)s1	inconclusive: 33.2 µM [cytotoxic, single point]
Cc1cc2c(cc1C1(c3ccc(C(=O)O)cn3)CC1)C(C)(C)CCC2(C)C	inactive
COc1cc(O)c2c(c1)C(=O)c1cc(C)cc(O)c1C2=O	inconclusive: 11.5 µM [cytotoxic, partial curve]
CN(CC(=O)N(Cc1ccc(C2CCCCC2)cc1)c1ccc(C(=O)O)c(O)c1)S(=O)(=O)c1c(F)c(F)c(F)c(F)c1F	inconclusive: 23.5 µM [cytotoxic, partial curve]
C=CC[N+]1([C@H]2C[C@H]3[C@@H]4CC[C@H]5C[C@H](O)[C@@H](N6CCOCC6)C[C@]5(C)[C@@H]4CC[C@]3(C)[C@H]2OC(C)=O)CCCC1	inactive
COc1cc(F)c(F)c(Nc2ccc(I)cc2F)c1NS(=O)(=O)C1(C[C@H](O)CO)CC1	inconclusive: 20.9 µM [cytotoxic, single point]
CO[C@H]1O[C@@H]2O[C@@]3(C)CC[C@@H]4[C@@H](C)CC[C@@H]([C@H]1C)[C@@]24OO3	active: 14.8 µM
O=c1ccc2ccc(O)c(O)c2o1	inconclusive: 37.2 µM [cytotoxic, single point]
COC(=O)Nc1ccc(-c2nc(N3CCOCC3)c3cnn(C4CCN(C(=O)OC)CC4)c3n2)cc1	inconclusive: 1.87 µM [cytotoxic, full curve]
COc1cccc(-c2cc(=O)c3ccccc3o2)c1N	inactive
C[C@@H](NC(=O)c1ncnc(N)c1Cl)c1ncc(C(=O)Nc2cc(C(F)(F)F)c(Cl)cn2)s1	inconclusive: 33.2 µM [cytotoxic, partial curve, poor fit]

In another format: entries from further up
Structure (SMILES) | Potency
Cc1ccn(-c2ccc(-c3ncco3)cc2)c(=O)c1-c1ccc2nc(N)ncc2c1 | inconclusive: 33.2 µM [cytotoxic, partial curve, poor fit]
Cn1cc(C=CC(=O)c2cccc(F)c2)cc1C=CC(=O)NO | inconclusive: 13.2 µM [cytotoxic, partial curve, poor fit]
COc1cc2ncnc(-n3nc(-c4ccccn4)nc3N)c2cc1OC | inconclusive: 29.6 µM [cytotoxic, single point]
NC(=O)NN=Cc1ccc([N+](=O)[O-])o1 | inactive
CCC(C)(Oc1ccc(C2(c3ccc(OC(C)(CC)C(=O)O)cc3)CCCCC2)cc1)C(=O)O (stereo not given) | inactive
O=c1[nH]nc(Sc2ncc([N+](=O)[O-])s2)n1-c1ccc2c(c1)OCCO2 | active: 9.35 µM
CN(CC(=O)N(Cc1ccc(C2CCCCC2)cc1)c1ccc(C(=O)O)c(O)c1)S(=O)(=O)c1c(F)c(F)c(F)c(F)c1F | inconclusive: 23.5 µM [cytotoxic, partial curve]
C=CC[N+]1([C@H]2C[C@H]3[C@@H]4CC[C@H]5C[C@H](O)[C@@H](N6CCOCC6)C[C@]5(C)[C@@H]4CC[C@]3(C)[C@H]2OC(C)=O)CCCC1 | inactive
COc1cc(F)c(F)c(Nc2ccc(I)cc2F)c1NS(=O)(=O)C1(C[C@H](O)CO)CC1 | inconclusive: 20.9 µM [cytotoxic, single point]
CO[C@H]1O[C@@H]2O[C@@]3(C)CC[C@@H]4[C@@H](C)CC[C@@H]([C@H]1C)[C@@]24OO3 | active: 14.8 µM
COc1cccc(-c2cc(=O)c3ccccc3o2)c1N | inactive
C[C@@H](NC(=O)c1ncnc(N)c1Cl)c1ncc(C(=O)Nc2cc(C(F)(F)F)c(Cl)cn2)s1 | inconclusive: 33.2 µM [cytotoxic, partial curve, poor fit]

The listing continues.

Structure (SMILES)	Potency
CC1(C)O[C@@H]2C[C@@H]3[C@H]4C[C@@H](F)C5=CC(=O)C=C[C@]5(C)[C@@]4(F)[C@@H](O)C[C@]3(C)[C@]2(C(=O)CO)O1	inconclusive: 0.0235 µM [cytotoxic, full curve]
CSc1cccc(Nc2ncc3cc(-c4c(Cl)cccc4Cl)c(=O)n(C)c3n2)c1	inactive
CC(C=CC=C(C)C=CC1=C(C)CCCC1(C)C)=CC=CC=C(C)C=CC=C(C)C=CC1=C(C)CCCC1(C)C	inactive
O=C(Cc1cccc(OC(F)(F)F)c1)Nc1ccc(CCCCc2nnc(NC(=O)Cc3ccccn3)s2)nn1	inconclusive: 0.0331 µM [cytotoxic, full curve, poor fit]
Oc1ccc(C2CCN(c3ccnc4ccccc34)CC2)cc1O	inconclusive: 3.32 µM [cytotoxic, full curve]
COc1cc(N2CCC(N(C)C)CC2)ccc1Nc1ncc(Cl)c(Nc2ccccc2P(C)(C)=O)n1	inconclusive: 2.95 µM [cytotoxic, full curve]
COc1cc([C@@H]2c3cc4c(cc3[C@@H](O[C@@H]3O[C@@H]5CO[C@@H](c6cccs6)O[C@@H]5[C@H](O)[C@@H]3O)[C@H]3COC(=O)[C@H]23)OCO4)cc(OC)c1O	inconclusive: 0.833 µM [cytotoxic, full curve, poor fit]
Nc1nc(N)c(N=O)c(OCC2CCCCC2)n1	inconclusive: 4.69 µM [cytotoxic, partial curve]
CC(C)(C)c1nc(-c2cccc(NS(=O)(=O)c3c(F)cccc3F)c2F)c(-c2ccnc(N)n2)s1	active: 0.743 µM
OCc1ccc(-c2ccc(-c3ccc(CO)s3)o2)s1	inconclusive: 23.5 µM [cytotoxic, partial curve, poor fit]
Cc1c(CCOc2ccc(C(=O)O)cc2)c2cc(Cl)ccc2n1C(c1ccccc1)c1ccccc1	inactive
Cc1cccc(C)c1OCC(=O)N[C@@H](Cc1ccccc1)[C@@H](O)C[C@H](Cc1ccccc1)NC(=O)[C@H](C(C)C)N1CCCNC1=O	inconclusive: 37.2 µM [cytotoxic, single point]
O=C(N[C@@H](c1ccccc1)[C@@H]1CCCCN1)c1cccc(C(F)(F)F)c1Cl	inconclusive: 37.2 µM [cytotoxic, partial curve, poor fit]
COc1cc(N2CCC(N3CCN(C)CC3)CC2)ccc1Nc1ncnc(Nc2ccccc2S(=O)(=O)C(C)C)n1	inconclusive: 16.6 µM [cytotoxic, partial curve, poor fit]
Cc1c(NC(=O)c2ccc(C(C)(C)C)cc2)cccc1-c1cn(C)c(=O)c(Nc2ccc(C(=O)N3CCOCC3)cc2)n1	inactive
CC1(C)OC2CC3C4CC(F)C5=CC(=O)C=CC5(C)C4C(O)CC3(C)[C@]2(C(=O)CO)O1 (stereo not given in full)	inconclusive: 0.0935 µM [cytotoxic, full curve]
NC(=NCc1ccccc1)NC(=O)c1nc(Cl)c(N)nc1N	inconclusive: 16.6 µM [cytotoxic, partial curve]
Nc1nc(F)nc2c1ncn2[C@@H]1O[C@H](COP(=O)(O)O)[C@@H](O)[C@H]1O	inconclusive: 18.7 µM [cytotoxic, partial curve]
COC(=O)Nc1nc2ccc(C(=O)c3ccc(F)cc3)cc2[nH]1	inconclusive: 0.743 µM [cytotoxic, full curve, poor fit]
O=C(Nc1ccccc1)Nc1ccc(-c2ccc(C(=O)[C@H]3CCC[C@H]3C(=O)O)cc2)cc1	inconclusive: 3.72 µM [cytotoxic, full curve, poor fit]
